This is one part of the list.
compound: C#Cc1cccc(Nc2ncnc3cc(OCCOC)c(OCCOC)cc23)c1 [erlotinib]; assay: log2 fold change, soluble protein after heating vs DMSO (PISA); higher = thermal stabilisation; K562 lysate, 10 uM; active = over 0.2 and 3.5 SD of the protein, either way, in both replicates (recomputed)
Outline: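 Dounce homogenisation of K562 pellets in PBS pH 7.4 with 1 mM MgCl2 produced a crude extract, used at 1 mg/mL protein. Exposure to 10 μM compound lasted 30 min, and aliquots were then heated for 3 min across 48°C-58°C, pooled and brought to 0.5% NP-40 at 4°C. The supernatant after 21,000xg for 90 min was quantified by TMTpro 16plex LC-MS/MS with channel sums equalised. Duplicate values are given as log-two fold change in thermal stability relative to solvent controls.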

By UniProt entry, the sequences of proteins in these tests, tags left out. Where a name states a change or a piece, a line headed by the entry shows the natural chain unless it says otherwise.
UniProt P53621: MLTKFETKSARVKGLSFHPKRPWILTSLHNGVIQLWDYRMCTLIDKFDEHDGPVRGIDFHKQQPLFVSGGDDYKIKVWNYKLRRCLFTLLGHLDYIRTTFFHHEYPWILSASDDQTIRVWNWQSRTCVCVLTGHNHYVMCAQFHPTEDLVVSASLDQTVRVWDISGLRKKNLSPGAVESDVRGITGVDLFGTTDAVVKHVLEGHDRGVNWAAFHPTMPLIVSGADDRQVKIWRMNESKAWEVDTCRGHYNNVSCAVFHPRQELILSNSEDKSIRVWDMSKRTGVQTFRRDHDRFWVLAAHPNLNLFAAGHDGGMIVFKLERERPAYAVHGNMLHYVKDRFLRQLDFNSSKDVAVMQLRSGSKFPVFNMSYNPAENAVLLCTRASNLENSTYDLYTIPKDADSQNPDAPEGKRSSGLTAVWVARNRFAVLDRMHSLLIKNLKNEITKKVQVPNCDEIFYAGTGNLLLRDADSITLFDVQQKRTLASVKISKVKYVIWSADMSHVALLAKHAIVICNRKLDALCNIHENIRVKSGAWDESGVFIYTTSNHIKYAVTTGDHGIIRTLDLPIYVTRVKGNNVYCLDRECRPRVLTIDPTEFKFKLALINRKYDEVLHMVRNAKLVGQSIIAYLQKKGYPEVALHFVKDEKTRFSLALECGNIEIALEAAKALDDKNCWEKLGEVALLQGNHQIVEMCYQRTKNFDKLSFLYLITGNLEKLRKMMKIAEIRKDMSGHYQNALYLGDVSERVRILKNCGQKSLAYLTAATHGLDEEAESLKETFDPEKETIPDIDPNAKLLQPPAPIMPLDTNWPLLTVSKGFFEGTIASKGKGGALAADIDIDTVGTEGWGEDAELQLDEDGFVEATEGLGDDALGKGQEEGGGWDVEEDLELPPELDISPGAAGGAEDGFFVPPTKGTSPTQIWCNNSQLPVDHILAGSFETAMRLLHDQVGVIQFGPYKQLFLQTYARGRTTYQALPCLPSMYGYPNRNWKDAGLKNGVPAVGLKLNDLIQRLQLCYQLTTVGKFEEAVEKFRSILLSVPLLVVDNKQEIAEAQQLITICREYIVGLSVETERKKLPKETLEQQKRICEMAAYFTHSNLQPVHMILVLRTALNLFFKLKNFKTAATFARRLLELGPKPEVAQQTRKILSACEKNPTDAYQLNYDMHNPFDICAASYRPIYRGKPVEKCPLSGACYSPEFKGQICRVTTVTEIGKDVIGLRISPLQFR
UniProt Q9UNS2: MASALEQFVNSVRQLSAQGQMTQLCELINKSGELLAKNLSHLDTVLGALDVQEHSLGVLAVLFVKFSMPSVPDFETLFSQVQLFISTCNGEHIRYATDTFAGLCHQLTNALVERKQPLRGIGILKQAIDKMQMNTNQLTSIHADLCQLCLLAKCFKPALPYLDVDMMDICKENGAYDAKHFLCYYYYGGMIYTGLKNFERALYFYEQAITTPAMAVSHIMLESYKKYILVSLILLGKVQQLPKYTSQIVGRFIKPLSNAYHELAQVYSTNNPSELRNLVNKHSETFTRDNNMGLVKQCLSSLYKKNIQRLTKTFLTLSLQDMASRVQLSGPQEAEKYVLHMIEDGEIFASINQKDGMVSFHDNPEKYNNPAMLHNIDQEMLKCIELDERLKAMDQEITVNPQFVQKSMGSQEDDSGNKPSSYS
UniProt P14406, whole entry, looked up: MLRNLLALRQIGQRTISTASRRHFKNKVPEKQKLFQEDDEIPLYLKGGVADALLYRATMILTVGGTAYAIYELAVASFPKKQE
UniProt Q9UIV1, whole entry, looked up: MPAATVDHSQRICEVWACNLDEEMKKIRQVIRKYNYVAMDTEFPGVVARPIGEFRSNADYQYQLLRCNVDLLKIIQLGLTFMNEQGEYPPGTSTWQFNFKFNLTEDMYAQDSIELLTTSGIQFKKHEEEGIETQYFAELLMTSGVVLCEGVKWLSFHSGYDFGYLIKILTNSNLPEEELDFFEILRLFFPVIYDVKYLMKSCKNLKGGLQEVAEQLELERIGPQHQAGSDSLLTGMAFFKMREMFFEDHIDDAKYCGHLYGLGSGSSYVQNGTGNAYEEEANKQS
UniProt P20674, whole entry, looked up: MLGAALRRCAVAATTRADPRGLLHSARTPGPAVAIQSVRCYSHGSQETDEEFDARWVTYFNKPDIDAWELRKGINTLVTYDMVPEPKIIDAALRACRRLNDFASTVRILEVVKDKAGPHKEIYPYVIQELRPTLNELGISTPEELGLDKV
UniProt Q99807: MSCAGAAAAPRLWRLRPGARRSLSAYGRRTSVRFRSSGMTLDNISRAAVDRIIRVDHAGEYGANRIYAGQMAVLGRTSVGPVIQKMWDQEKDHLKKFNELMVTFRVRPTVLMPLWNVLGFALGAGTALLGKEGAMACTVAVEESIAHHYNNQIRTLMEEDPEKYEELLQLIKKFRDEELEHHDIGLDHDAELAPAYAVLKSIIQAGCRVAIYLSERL
UniProt Q9Y6N1: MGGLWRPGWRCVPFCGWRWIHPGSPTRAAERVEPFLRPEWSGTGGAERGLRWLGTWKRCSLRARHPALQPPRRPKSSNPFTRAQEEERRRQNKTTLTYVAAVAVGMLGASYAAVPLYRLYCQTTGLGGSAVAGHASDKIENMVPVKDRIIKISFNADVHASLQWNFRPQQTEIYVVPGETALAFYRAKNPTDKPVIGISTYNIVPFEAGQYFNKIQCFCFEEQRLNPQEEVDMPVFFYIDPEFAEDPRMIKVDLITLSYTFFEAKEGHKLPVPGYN
UniProt P78560: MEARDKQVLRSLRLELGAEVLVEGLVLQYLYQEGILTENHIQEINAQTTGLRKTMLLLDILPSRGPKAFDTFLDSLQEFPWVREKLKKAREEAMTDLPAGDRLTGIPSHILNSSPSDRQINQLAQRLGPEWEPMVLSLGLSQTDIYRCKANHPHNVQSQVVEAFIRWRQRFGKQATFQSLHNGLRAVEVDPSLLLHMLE
UniProt Q86VU5: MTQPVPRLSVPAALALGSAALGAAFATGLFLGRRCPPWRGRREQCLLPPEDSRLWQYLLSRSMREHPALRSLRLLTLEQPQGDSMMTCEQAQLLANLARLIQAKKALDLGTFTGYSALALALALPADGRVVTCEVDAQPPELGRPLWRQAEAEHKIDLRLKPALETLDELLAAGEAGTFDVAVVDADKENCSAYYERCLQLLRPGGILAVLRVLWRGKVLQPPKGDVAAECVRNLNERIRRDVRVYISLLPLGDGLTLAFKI
UniProt Q49B96: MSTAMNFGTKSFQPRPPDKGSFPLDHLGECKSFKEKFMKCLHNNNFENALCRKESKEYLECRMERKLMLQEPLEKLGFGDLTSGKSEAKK
UniProt P61923: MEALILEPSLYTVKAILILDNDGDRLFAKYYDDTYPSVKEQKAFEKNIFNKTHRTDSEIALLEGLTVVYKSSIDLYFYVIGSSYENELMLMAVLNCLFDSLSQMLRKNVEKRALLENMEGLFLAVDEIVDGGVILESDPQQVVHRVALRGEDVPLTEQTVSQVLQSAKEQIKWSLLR
UniProt Q9BRF8, whole entry, looked up: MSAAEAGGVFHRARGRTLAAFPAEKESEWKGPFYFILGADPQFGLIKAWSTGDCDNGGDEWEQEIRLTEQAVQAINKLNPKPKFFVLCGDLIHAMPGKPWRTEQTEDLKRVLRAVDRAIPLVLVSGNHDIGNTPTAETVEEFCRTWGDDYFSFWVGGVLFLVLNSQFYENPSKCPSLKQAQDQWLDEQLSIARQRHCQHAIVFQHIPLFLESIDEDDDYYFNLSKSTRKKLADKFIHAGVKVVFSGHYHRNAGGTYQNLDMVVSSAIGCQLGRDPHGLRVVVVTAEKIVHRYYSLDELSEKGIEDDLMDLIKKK
UniProt O95639, whole entry, looked up: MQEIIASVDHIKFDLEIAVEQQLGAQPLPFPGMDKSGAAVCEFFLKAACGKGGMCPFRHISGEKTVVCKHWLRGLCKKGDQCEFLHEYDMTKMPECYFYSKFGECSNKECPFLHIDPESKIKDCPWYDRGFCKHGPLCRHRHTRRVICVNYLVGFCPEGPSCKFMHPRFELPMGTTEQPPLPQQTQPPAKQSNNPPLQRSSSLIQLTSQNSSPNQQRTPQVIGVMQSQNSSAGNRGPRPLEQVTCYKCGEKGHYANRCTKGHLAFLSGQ
UniProt O75976: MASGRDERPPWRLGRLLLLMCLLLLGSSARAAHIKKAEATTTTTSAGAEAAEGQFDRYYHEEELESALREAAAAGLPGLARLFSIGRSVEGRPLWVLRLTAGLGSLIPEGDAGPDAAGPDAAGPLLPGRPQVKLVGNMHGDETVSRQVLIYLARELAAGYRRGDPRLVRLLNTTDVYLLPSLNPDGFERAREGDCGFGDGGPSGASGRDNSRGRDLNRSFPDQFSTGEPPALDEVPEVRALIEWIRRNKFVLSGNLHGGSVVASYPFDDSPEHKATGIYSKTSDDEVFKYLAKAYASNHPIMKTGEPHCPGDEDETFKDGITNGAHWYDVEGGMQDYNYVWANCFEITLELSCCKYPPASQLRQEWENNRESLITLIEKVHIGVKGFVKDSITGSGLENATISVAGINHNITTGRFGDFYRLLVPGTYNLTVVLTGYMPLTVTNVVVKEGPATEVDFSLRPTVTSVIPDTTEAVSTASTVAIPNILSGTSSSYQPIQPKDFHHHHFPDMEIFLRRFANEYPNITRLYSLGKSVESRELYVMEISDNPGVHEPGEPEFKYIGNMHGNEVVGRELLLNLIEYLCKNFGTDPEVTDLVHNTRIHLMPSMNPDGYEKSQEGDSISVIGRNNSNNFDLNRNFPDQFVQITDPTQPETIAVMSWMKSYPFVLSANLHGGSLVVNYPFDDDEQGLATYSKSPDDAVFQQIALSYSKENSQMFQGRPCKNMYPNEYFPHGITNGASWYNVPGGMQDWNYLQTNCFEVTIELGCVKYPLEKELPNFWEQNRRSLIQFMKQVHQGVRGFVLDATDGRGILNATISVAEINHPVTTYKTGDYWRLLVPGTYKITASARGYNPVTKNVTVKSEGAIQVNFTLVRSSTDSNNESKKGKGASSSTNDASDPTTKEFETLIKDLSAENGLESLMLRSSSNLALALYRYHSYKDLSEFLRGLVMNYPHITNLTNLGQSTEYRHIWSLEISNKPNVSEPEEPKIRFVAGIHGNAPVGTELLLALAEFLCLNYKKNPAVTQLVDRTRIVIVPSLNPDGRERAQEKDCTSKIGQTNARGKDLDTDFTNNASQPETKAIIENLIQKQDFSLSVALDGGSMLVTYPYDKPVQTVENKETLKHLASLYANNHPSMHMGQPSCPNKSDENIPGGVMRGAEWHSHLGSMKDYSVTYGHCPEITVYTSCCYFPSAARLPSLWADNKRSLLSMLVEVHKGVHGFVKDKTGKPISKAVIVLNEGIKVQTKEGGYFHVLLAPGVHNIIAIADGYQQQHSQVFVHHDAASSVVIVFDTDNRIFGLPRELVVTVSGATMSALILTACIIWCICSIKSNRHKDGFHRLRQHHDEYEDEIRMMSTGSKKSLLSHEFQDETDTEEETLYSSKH
UniProt Q17RY0: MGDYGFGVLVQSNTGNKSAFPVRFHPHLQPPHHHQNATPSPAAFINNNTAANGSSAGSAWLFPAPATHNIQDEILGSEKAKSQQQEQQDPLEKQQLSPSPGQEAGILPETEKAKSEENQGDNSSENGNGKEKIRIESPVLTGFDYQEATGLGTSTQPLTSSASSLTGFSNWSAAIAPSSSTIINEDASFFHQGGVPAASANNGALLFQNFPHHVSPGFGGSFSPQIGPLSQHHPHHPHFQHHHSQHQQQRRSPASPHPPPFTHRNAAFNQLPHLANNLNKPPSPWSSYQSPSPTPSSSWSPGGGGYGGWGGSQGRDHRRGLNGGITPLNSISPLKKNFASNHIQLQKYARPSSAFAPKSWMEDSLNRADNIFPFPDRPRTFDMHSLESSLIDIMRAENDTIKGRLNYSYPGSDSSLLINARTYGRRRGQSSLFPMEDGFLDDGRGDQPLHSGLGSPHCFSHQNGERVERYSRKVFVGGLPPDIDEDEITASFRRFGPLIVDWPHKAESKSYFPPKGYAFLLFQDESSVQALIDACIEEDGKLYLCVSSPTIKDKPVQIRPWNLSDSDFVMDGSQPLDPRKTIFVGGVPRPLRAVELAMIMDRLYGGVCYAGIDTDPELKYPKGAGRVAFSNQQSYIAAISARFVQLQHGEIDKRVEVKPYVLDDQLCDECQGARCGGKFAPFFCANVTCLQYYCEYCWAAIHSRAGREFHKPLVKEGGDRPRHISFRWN
UniProt Q7KZN9: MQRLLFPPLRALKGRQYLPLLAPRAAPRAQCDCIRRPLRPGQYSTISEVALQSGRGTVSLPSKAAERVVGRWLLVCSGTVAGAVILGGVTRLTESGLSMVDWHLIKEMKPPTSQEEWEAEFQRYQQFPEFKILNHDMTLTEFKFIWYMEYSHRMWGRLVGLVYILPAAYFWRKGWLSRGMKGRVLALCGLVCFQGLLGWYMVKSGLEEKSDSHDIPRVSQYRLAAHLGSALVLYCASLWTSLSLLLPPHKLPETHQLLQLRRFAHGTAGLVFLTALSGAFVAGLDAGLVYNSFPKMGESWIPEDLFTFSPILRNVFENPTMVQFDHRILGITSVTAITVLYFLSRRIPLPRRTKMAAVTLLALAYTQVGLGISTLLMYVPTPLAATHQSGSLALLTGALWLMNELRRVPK
UniProt P12074, whole entry, looked up: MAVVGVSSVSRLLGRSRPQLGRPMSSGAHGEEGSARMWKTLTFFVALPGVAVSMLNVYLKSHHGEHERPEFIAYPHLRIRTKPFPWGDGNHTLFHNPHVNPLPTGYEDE

log2 fold change, inactive:
CNOT10 (UniProt Q9H9A5) 0.005
COPA isoform 2 (UniProt P53621) -0.007
COPS3 (UniProt Q9UNS2) 0.007
COX7A2 (UniProt P14406) -0.01
CNOT6 (UniProt Q9ULM6) -0.002
CNOT7 (UniProt Q9UIV1) 0.016
CNOT3 (UniProt O75175) 0.056
COX5A (UniProt P20674) 0.085
COPRS (UniProt Q9NQ92) -0.052
COQ7 (UniProt Q99807) -0.014
COTL1 (UniProt Q14019) -0.012
COX11 (UniProt Q9Y6N1) 0.026
CRADD (UniProt P78560) 0.052
COMMD1 (UniProt Q8N668) 0.029
CNOT1 (UniProt A5YKK6) 0.006
CPSF7 isoform 3 (UniProt Q8N684) -0.009
COMTD1 (UniProt Q86VU5) 0.145
COX18 (UniProt Q8N8Q8) 0.019
COX19 (UniProt Q49B96) -0.006
COPZ1 isoform 4 (UniProt P61923) -0.029
CPSF1 (UniProt Q10570) 0.018
CNPY2 (UniProt Q9Y2B0) -0.034
CNST (UniProt Q6PJW8) 0.044
COA1 (UniProt Q9GZY4) 0.039
COPS7B (UniProt Q9H9Q2) -0.025
COQ3 (UniProt Q9NZJ6) -0.165
CNTN4 (UniProt Q8IWV2) 0.053
COX4I1 (UniProt P13073) 0.001
CPPED1 (UniProt Q9BRF8) -0.046
COPS4 (UniProt Q9BT78) -0.013
CPSF4 (UniProt O95639) 0.071
COMMD10 (UniProt Q9Y6G5) 0.026
CPD (UniProt O75976) 0.001
CORO1C isoform 3 (UniProt Q9ULV4) 0.015
CNOT4 isoform 6 (UniProt O95628) -0.025
COMMD9 (UniProt Q9P000) 0.056
COL18A1 (UniProt P39060) -0.053
CPEB4 (UniProt Q17RY0) -0.166
COX15 (UniProt Q7KZN9) 0.021
COX6A1 (UniProt P12074) -0.042

Source: the supplement of paper PMC10849652
